The campaign covered roughly 340,000 compounds. About 170 (0.05%) were called active. The shares of active, inactive and inconclusive entries below differ from those in the screen. Calls follow the shape of the dose curve; as a rule, active = well fitted inhibition curve with a large enough effect in the signal ratio, with a control signal flat (not every such curve was filed as active); inconclusive = small, poorly fitted or top-dose-only effect, or effect the other way, or a change in a side signal; inactive = flat fitted curve, though single readings scatter; the % refers to the signal ratio. Potencies beside an inconclusive call are fits to weak or partial responses and may not hold up.
Assay: qHTS Assay to Find Inhibitors of Chronic Active B-Cell Receptor Signaling;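 as to activity change, negative = inhibition: plate controls were basal doxycycline-induced cells for no effect and cells given 10 µM MG132 for full effect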
Conditions: ABC-DLBCL IkBa-CBG/CBR reporter, luminescence ratio (green luciferase fused to IkBa over red control in TMD8 lymphoma cells), 4 h; activity change, negative = inhibition: at 46.1 µM (top of the series)
Procedure, shortened: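 Doxycycline induced both beetle luciferases in TMD8 lymphoma cells; IKK-driven degradation limits the IkappaBalpha-fused green signal, while red luminescence normalises for cell number and nonspecific effects. Compounds tested up to 46 uM, 4 hrs.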
In the case of `Cc1sc(NC(=S)NC(=O)CCc2ccccc2)c(C(N)=O)c1C`, the Potency is reported as inconclusive: 0.291 µM [falling, full curve, poor fit].
With `CNC(=O)c1c(NC(=O)CS(=O)(=O)c2ccccc2)sc(C)c1C` the Potency was inconclusive: 29.1 µM [falling, single point].
In the case of `CCSC(=O)N(CC)CC(=O)Nc1c(CC)cccc1CC`, the activity change, negative = inhibition is reported as inconclusive: 12.2%.
With `Cc1ccc(/C=N\NC(=O)c2cc([N+](=O)[O-])cc([N+](=O)[O-])c2)o1` the activity change, negative = inhibition was “inactive”.
For `CCc1ccc(Nc2n[n+](-c3ccccc3)c(-c3cccc(C)c3)s2)cc1`, the activity change, negative = inhibition was inconclusive: -6.72%.
With `CN1CCN(CCCNC(=O)c2ccc3c(Cl)c4c(nc3c2)CCCC4)CC1` the activity change, negative = inhibition was “inactive”.
For `COc1ccc(C(=O)C2CCCN(S(=O)(=O)C(C)C)C2)c(C)c1` (stereo unspecified), the activity change, negative = inhibition was inconclusive: 0.0766%.
In the case of `CCc1sc(C(=O)Nc2ccc3nc(C)sc3c2)cc1C`, the Potency is reported as inconclusive: 29.1 µM [falling, partial curve, poor fit].
With `CCC(c1nnnn1Cc1ccc(F)cc1)N(CCCO)Cc1cc2cc3c(cc2[nH]c1=O)OCO3` (stereo unspecified) the activity change, negative = inhibition was inconclusive: -15.3%.
In the case of `C/C(CCc1oc2ccc(Br)cc2c1-c1ccc(C)o1)=N/O`, the activity change, negative = inhibition is reported as inconclusive: -11%.
In the case of `O=C(COC(=O)c1ccccc1-c1nc2ccccc2s1)Nc1ccccc1C(F)(F)F`, the Potency is reported as inconclusive: 29.1 µM [falling, single point].
With `C/C(=N\NS(=O)(=O)c1ccc(Br)cc1)c1ccc(-n2ccnc2)cc1` the activity change, negative = inhibition was inconclusive: -13.1%.
In the case of `Cc1ccc2sc(N(CCCN(C)C)C(=O)CCS(=O)(=O)c3ccccc3)nc2c1C`, the Potency is reported as inconclusive: 5.62 µM [falling, single point].
With `CC(=O)Nc1ccc(C(=O)OCC(=O)NCc2cccs2)cc1` the activity change, negative = inhibition was inconclusive: 0.602%.
In the case of `CC(NC(=O)c1ccccc1Cl)C1COc2ccccc2O1` (stereo unspecified), the activity change, negative = inhibition is reported as inconclusive: -0.41%.
For `O=C(c1ccccc1)N(Cc1nc2ccccc2c(=O)[nH]1)C1CCCCC1`, the activity change, negative = inhibition was inconclusive: -12.3%.
In the case of `CCc1ccc(N2CC(C(=O)Nc3cc(C)on3)CC2=O)cc1` (stereo unspecified), the activity change, negative = inhibition is reported as inconclusive: 4.45%.
For `CC1=C(C#N)C(C(F)(F)F)(C(F)(F)F)N=C(c2ccco2)N1`, the activity change, negative = inhibition was “inactive”.
With `S=c1nc(-c2ccccc2)[nH]n1-c1ccccc1` the activity change, negative = inhibition was “inactive”.
For `O=C(Nc1ccc(Cn2cccn2)cc1)c1ccc(COc2cccc(Br)c2)cc1`, the activity change, negative = inhibition was inconclusive: -27.4%.
For `CCN1C(=O)c2cccc3c(NS(=O)(=O)c4ccc(NC(C)=O)cc4)ccc1c23`, the activity change, negative = inhibition was inconclusive: -1.49%.
With `CC(OC(=O)c1ccc([N+](=O)[O-])o1)C(=O)Nc1nc(-c2ccc(F)c(F)c2)cs1` (stereo unspecified) the activity change, negative = inhibition was “inactive”.
In the case of `CCOC(=O)CN1C(=O)S/C(=C/c2ccc3c(c2)n(C)c(=O)n3C)C1=O`, the activity change, negative = inhibition is reported as “inactive”.
For `O=C(Nc1cccc(-c2csc(Nc3cccc(C(F)(F)F)c3)n2)c1)c1ccccc1`, the activity change, negative = inhibition was inconclusive: 16.3%.
With `O=[N+]([O-])c1ccc(CS(=O)(=O)c2ccc(Cl)cc2)cc1` the activity change, negative = inhibition was inconclusive: 3.57%.
In the case of `Cc1ccsc1/C=C/c1ccc2ccccc2n1`, the activity change, negative = inhibition is reported as inconclusive: -15.1%.
In the case of `CCN(CC)c1ccc2c(c1)OC(N)=C(C#N)C2c1cccnc1` (stereo unspecified), the Potency is reported as inconclusive: 20 µM [falling, partial curve, poor fit].
With `CC(C)(C)c1ccc(C(=O)NC(=S)Nc2nc3c(s2)CCCC3)cc1` the activity change, negative = inhibition was “inactive”.
For `O=C(CCNc1ccccc1)c1cccc([N+](=O)[O-])c1`, the activity change, negative = inhibition was inconclusive: 4.63%.
In the case of `Cc1ccc(NC(=O)N2CCC(c3nc4c(nnn4Cc4c(F)cccc4Cl)c(=O)[nH]3)CC2)cc1`, the activity change, negative = inhibition is reported as inconclusive: 13.4%.
In the case of `COCCN1C=C(C(=O)OC)C(c2cc(Br)c(OC)c(OC)c2)C(C(=O)OC)=C1`, the activity change, negative = inhibition is reported as inconclusive: -17.7%.
For `CCCn1cnc2scc(-c3ccc(C)cc3)c2c1=O`, the Potency was inconclusive: 35.5 µM [rising, partial curve, poor fit].
With `Cc1ccccc1NS(=O)(=O)c1cc(C(=O)Nc2cccc([N+](=O)[O-])c2)ccc1C` the activity change, negative = inhibition was inconclusive: 6.09%.
For `Cc1ccc2cc3c(NC(=O)C4CCCO4)nn(CC(C)C)c3nc2c1` (stereo unspecified), the activity change, negative = inhibition was inconclusive: 2.45%.
In the case of `C=Cc1ccc2c(c1)N(C)C(=C)S2`, the activity change, negative = inhibition is reported as “inactive”.
For `Cc1cc(NC(=O)CSc2nnc(C3CC3)n2N)no1`, the activity change, negative = inhibition was “inactive”.
For `C/C(=N\NC(=O)c1cc(-c2ccco2)nc2ccccc12)c1cccnc1`, the Potency was inconclusive: 35.5 µM [falling, single point].
With `COc1cc(C2c3[nH]c4ccccc4c3CCN2Cc2cn(C)nc2C)ccc1F` (stereo unspecified) the Potency was inconclusive: 25.1 µM [falling, single point].
With `Cc1cc(CNC(=O)C2CCC(=O)N(Cc3ccccc3F)C2)nn1C` (stereo unspecified) the activity change, negative = inhibition was inconclusive: -1.4%.
In the case of `COc1ccccc1-c1nnc(SC/C(O)=C(\C#N)c2nc3ccccc3[nH]2)n1C1CCCCC1`, the Potency is reported as inconclusive: 18.4 µM [falling, single point].
For `COc1ccc(-c2csc(C3=C(O)CN(C(C)C)C3=N)n2)cc1OC`, the Potency was inconclusive: 17.8 µM [falling, partial curve, poor fit].
For `Cn1cc(CN2CCCC(C(=O)c3ccc(-c4ccccc4)cc3)C2)cn1` (stereo unspecified), the Potency was inconclusive: 0.126 µM [falling, full curve, poor fit].
For `Cc1cc(N2CCC(C)CC2)nc2cccc(O)c12`, the activity change, negative = inhibition was inconclusive: 20.4%.
For `Cc1cccc(/C=N/NC(=O)Cc2cccs2)c1`, the Potency was inconclusive: 20 µM [falling, single point].
With `COc1ccc(C(=O)NNC(=O)c2ccc3ccccc3n2)cc1` the Potency was inconclusive: 29.1 µM [falling, partial curve, poor fit].
For `O=C(CNc1cc(S(=O)(=O)N2CCOCC2)ccc1NCC1CCCO1)Nc1ccccc1F` (stereo unspecified), the Potency was inconclusive: 7.94 µM [falling, partial curve, poor fit].
In the case of `CN1CCN(CCCNC(=O)c2ccc3c(=O)n(CCc4ccccc4)c(=O)[nH]c3c2)CC1`, the activity change, negative = inhibition is reported as inconclusive: 0.361%.
With `Cc1c(OCC(=O)NCc2ccncc2)ccc2c3c(c(=O)oc12)CCC3` the activity change, negative = inhibition was inconclusive: -4.59%.
In the case of `O=C(NNC1=Nc2ccccc2SC1)c1ccc(Cl)cc1`, the activity change, negative = inhibition is reported as inconclusive: 11.6%.
In the case of `O=C(CN1CCN(S(=O)(=O)N2CCOCC2)CC1)Nc1cc(Cl)ccc1Cl`, the activity change, negative = inhibition is reported as inconclusive: -0.508%.
For `CCCCNc1c(-c2ccc(OC)c(SC3CCCCC3)c2)nc2cnccn12`, the activity change, negative = inhibition was inconclusive: 15.1%.
With `CCOC(=O)c1cnc(SC)nc1Sc1ccccc1` the activity change, negative = inhibition was inconclusive: 15.6%.
For `Cc1ccn2cc(CNC(=O)c3cccs3)nc2c1`, the activity change, negative = inhibition was inconclusive: -15.5%.
With `O=C(CSc1nncs1)NC(=O)Nc1ccc2c(c1)OCCO2` the activity change, negative = inhibition was “inactive”.
With `COc1ccc(/C=C/C(=O)NC(=S)NCC2CCCO2)cc1` (stereo unspecified) the Potency was inconclusive: 2.51 µM [falling, full curve].
In the case of `C/C(=C/C(=O)O)C(=O)Nc1cccc(C(F)(F)F)c1`, the Potency is reported as inconclusive: 22.4 µM [falling, single point].
In the case of `COc1ccc(NC(=O)c2cc(=O)[nH]c3ccccc23)cc1`, the activity change, negative = inhibition is reported as “inactive”.
With `O=C(CSc1nc2ccccc2s1)NNC(=O)Nc1ccc(Cl)c(Cl)c1` the activity change, negative = inhibition was inconclusive: -2.64%.
In the case of `CC1=C(C(=O)OCc2ccccc2)C(c2ccc(Cl)cc2)NC(=O)N1C` (stereo unspecified), the activity change, negative = inhibition is reported as inconclusive: 1.7%.
In the case of `Cc1ccc(CN(C)C(=O)c2ccc(S(=O)(=O)N3CCCCCC3)cc2)o1`, the activity change, negative = inhibition is reported as inconclusive: -1.01%.
For `Cn1c(-c2ccc(Br)o2)nc2ccccc21`, the activity change, negative = inhibition was inconclusive: 0.292%.
With `COc1ccc(C(=O)NN)cc1` the Potency was inconclusive: 11.2 µM [falling, partial curve].
For `CCCCCc1c(C)nc(Nc2ccc(F)cc2)[nH]c1=O`, the activity change, negative = inhibition was “inactive”.
For `Cc1nc2c(sc3nc(N4CCOCC4)c4c(c32)CC(C)(C)OC4)c(-c2ccccc2)c1C(=O)O`, the activity change, negative = inhibition was “inactive”.
With `Cc1ccc(-n2nc3c(=O)n(CC(=O)NCCc4ccc(Cl)cc4)nc(C)c3c2C)cc1` the activity change, negative = inhibition was “inactive”.
For `CCOc1ccccc1NC(=O)C(OC(=O)c1ccc(CC)cc1)c1ccccc1` (stereo unspecified), the activity change, negative = inhibition was inconclusive: 1.9%.
With `COCc1nnc(NC(=O)CS(=O)(=O)Cc2ccccc2)s1` the activity change, negative = inhibition was inconclusive: 13.5%.
In the case of `C=CCSc1cc(C)nc2c(-c3ccccc3)cnn12`, the Potency is reported as inconclusive: 31.6 µM [rising, single point].
In the case of `COC(=O)c1ccc(NC(=O)c2cccc(N3C(=O)C4C5C=CC(C6CC56)C4C3=O)c2)cc1` (stereo unspecified), the activity change, negative = inhibition is reported as inconclusive: 4.19%.
With `Cc1ccccc1NC(=O)c1ccc2c(c1)OCCO2` the Potency was inconclusive: 23.1 µM [falling, partial curve].
In the case of `Cc1cccc(NN=C2c3ccccc3-c3ccccc32)c1`, the activity change, negative = inhibition is reported as inconclusive: 19%.
In the case of `O=C(Nc1cccc(F)c1)NC1CC2CCCC(C1)N2C1CC1` (stereo unspecified), the activity change, negative = inhibition is reported as “inactive”.
For `OCCC1CN(Cc2ccon2)CCN1Cc1ccc(F)c(F)c1` (stereo unspecified), the activity change, negative = inhibition was inconclusive: 13%.
In the case of `NC(=O)C1CCN(C(=O)C2CCC(=O)N(CC3CCCCC3)C2)CC1` (stereo unspecified), the activity change, negative = inhibition is reported as inconclusive: 1.41%.
For `Cc1csc(NC(=O)c2cc(-c3ccco3)nc3ccccc23)n1`, the activity change, negative = inhibition was inconclusive: 12.2%.
In the case of `C/C=C/c1ccc(OCCSc2nc(C)cc(=O)[nH]2)c(OC)c1`, the activity change, negative = inhibition is reported as inconclusive: 8.51%.
With `CCOC(=O)c1sc(NNC(=O)c2ccc(F)cc2)nc1C` the Potency was inconclusive: 35.5 µM [falling, single point].
In the case of `Fc1ccccc1CSc1nnnn1-c1ccc2c(c1)OCO2`, the activity change, negative = inhibition is reported as inconclusive: 2.03%.
With `Cc1nc2c(-c3ccc(F)cc3)c(C)[nH]n2c(=O)c1Cl` the activity change, negative = inhibition was “inactive”.
For `COc1ccccc1N1CCN(C(=O)C(=O)c2c[nH]c3ccccc23)CC1`, the activity change, negative = inhibition was inconclusive: -12%.
With `O=C1c2ccccc2C(=O)c2c(NCCCN(CCO)CCO)cccc21` the activity change, negative = inhibition was inconclusive: 1.25%.

From PubChem BioAssay AID493014 (National Center for Advancing Translational Sciences (NCATS), 2011)
Potency is read from the fitted curve at half-maximal effect.
